Experimental data reported in paper PMC9122904, “Insights into the client protein release mechanism of the ATP-independent chaperone Spy” (Nature Communications, 2022).
These are yes or no findings as the source states them, for the method shown. Some entries that bind do so weakly or less than the wild type.

Target: T1, Spy_(29-124) (UniProt P77754)
T1 sequence: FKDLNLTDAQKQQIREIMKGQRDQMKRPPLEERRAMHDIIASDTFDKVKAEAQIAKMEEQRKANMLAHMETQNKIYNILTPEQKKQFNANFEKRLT
Assay: NMR titration; 0.1 mM [15N]-Spy_(29-124) with unlabeled peptide at molar ratios 1:2 to 1:40; 2D 1H-15N HSQC; 40 mM HEPES-NaOH, 150 mM NaCl, pH 7.5, 25 °C; one-site binding model; both purified

In the case of ADTTTAAPADAKPMMHHKGKFGPHQKMM (peptide, UniProt P77754 24-51, looked up, Spy of E. coli, residues 1-28 with D26K) [Nt-pep D26K], the binding is reported as “binds weakly”.

For ADTTTAAPADAKPMMHHKGKFGPHQRMM (peptide, UniProt P77754 24-51, looked up, Spy of E. coli, residues 1-28 with D26R) [Nt-pep D26R], the binding was “binds weakly”.
